# Measured values published in PubChem BioAssay (NCATS).
# The list shows a part of the results. Shown are side measurements of this screen, not its main read-out; they come without a call. Most of these compounds were active or inconclusive in the main read-out, so they are no random draw.
# Test: qHTS for identification of novel therapeutic agents for treatment of microphthalmiaassociated transcription factor (MiT) renal cell carcinoma (RCC) (AID 1963991)
# Conditions: TFE3-RCC viability, CellTiter-Glo, 48 h; measured here: UOK145 Z-AUC; stronger effect = lower value
# Method in brief: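 Three TFE3-fusion RCC lines (UOK109, UOK124, UOK145), 500 cells/well in complete medium, were treated with MIPE 4.0 compounds for 48 hours at 37 C. Viability was by CellTiter-Glo luminescence, normalized to DMSO (100%) and empty wells (0%); curves fitted over 11 concentrations.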
row,Compound,z-score
1,COc1ccc2c3n(c(=NC(=O)c4cccnc4)nc2c1OC)CCN3,0.0154
2,C[C@@H](Oc1ccc2[nH]nc(C=Cc3cnn(CCO)c3)c2c1)c1c(Cl)cncc1Cl,-1.33
3,CCn1c(-c2nonc2N)nc2cncc(CNC3CCNCC3)c21,-0.298
4,CCCCCCOC(=O)N=C(N)c1ccc(NCc2nc3cc(C(=O)N(CCC(=O)OCC)c4ccccn4)ccc3n2C)cc1,0.555
5,O=C(c1ccc(F)c(F)c1Nc1ccc(I)cc1F)N1CC(O)([C@H]2CCCCN2)C1,0.125
6,CNC(=O)c1c(-c2ccc(F)cc2)oc2cc(N(CCO)S(C)(=O)=O)c(C3CC3)cc12,-0.337
7,C[C@@H]1CN(Cc2ccc(F)cc2)[C@@H](C)CN1C(=O)c1cc2c(C(=O)C(=O)N(C)C)cn(C)c2cc1Cl,0.446
8,C=CC(=O)Nc1cc(NC(=O)c2ccc(C)c(NC(=O)c3ccno3)c2)cc(C(F)(F)F)c1,-0.311
9,CCn1c(-c2nonc2N)nc2c(C#CC(C)(C)O)ncc(OC[C@H]3CCCNC3)c21,-0.344
10,CC(C)(C)NC(=O)[C@H]1CN(Cc2cccnc2)CCN1C[C@@H](O)C[C@@H](Cc1ccccc1)C(=O)N[C@H]1c2ccccc2C[C@H]1O,-3.78
11,Cn1c(=O)c(-c2c(Cl)cccc2Cl)cc2cnc(Nc3cccc(C(=O)O)c3)nc21,0.149
12,COCCCN1CCC(NC(=O)c2cc(Cl)c(N)c3c2OCC3)CC1,-0.0583
13,N#CC(=C1Nc2ccccc2S1)c1ccnc(OCc2ccc(CN3CCOCC3)cc2)n1,-0.744
14,CN(C)S(=O)(=O)c1ccc2c(c1)C(=Cc1cc3c([nH]1)CCCC3)C(=O)N2,0.605
15,N#CC(c1ccnc(NCCc2cccnc2)n1)c1nc2ccccc2s1 (stereo not given),-0.539
16,C[C@@]1(C(=O)Nc2ccc(F)nc2)CCCN1c1nc(Nc2cc(C3CC3)[nH]n2)c2cccn2n1,-0.0771
17,COc1cc(C(=O)NS(=O)(=O)c2ccccc2C)ccc1Cc1cn(C)c2ccc(NC(=O)OC3CCCC3)cc12,-0.51
18,CCC(=C(c1ccccc1)c1ccc(OCCN(C)C)cc1)c1ccccc1,0.493
19,COc1cc2nccc(Oc3ccc(NC(=O)NC4CC4)c(Cl)c3)c2cc1C(N)=O,-0.805
20,CN(C)CC=CC(=O)Nc1cc2c(Nc3ccc(F)c(Cl)c3)ncnc2cc1O[C@H]1CCOC1,-0.591

# Single entries from the results shown:
# Cn1c(=O)c(-c2c(Cl)cccc2Cl)cc2cnc(Nc3cccc(C(=O)O)c3)nc21 – z-score: 0.149
# COc1cc2nccc(Oc3ccc(NC(=O)NC4CC4)c(Cl)c3)c2cc1C(N)=O – z-score: -0.805

# Later entries

row,Compound,z-score
1,Nc1ncn([C@@H]2O[C@H](CO)[C@@H](O)[C@@H]2O)c(=O)n1,-0.453
2,C#C[C@]1(O)CC[C@@H]2[C@@H]3CCc4cc(O)ccc4[C@H]3CC[C@@]21C,0.0603
3,CCCS(=O)(=O)Nc1ccc(F)c(C(=O)c2c[nH]c3ncc(Cl)cc23)c1F,0.146
4,CN[C@H]1[C@@H](O)[C@@H]2O[C@@H]3O[C@H](C)CC(=O)[C@]3(O)O[C@@H]2[C@@H](NC)[C@H]1O,-0.916
5,C[C@H](NC(=O)C(C#N)=Cc1cccc(Br)n1)c1ccccc1,0.0444
6,Cc1cccc2c1CC[C@H](CN1CCC(c3c(Cl)cccc3Cl)CC1)C[C@@H]2O,0.275
7,C[C@H](NCc1ccc2c(c1)nc(NC(=O)c1ccc(-c3cn[nH]c3)s1)n2CCc1ccccc1)C(C)(C)C,-0.837
8,C=C1C(=O)O[C@H]2[C@@H]1CCC(C)=CCC[C@@]1(C)O[C@@H]21,0.492
9,COc1cc(C=CC(=O)CC(=O)C=Cc2ccc(O)c(OC)c2)ccc1O,-0.601
10,CNS(=O)(=O)CCc1ccc2[nH]cc(C3CCN(C)CC3)c2c1,-0.998
11,O=C(O)C[C@H](O)C[C@H](O)C=Cc1c(C2CC2)nc2ccccc2c1-c1ccc(F)cc1,-0.0354
12,C[C@]1(CO)CN(c2cc(C(=O)Nc3ccc4c(c3)-c3c(c(C(N)=O)nn3-c3ccc(F)cc3)CC4)c(Cl)cn2)C[C@@]1(C)CO,-0.78
14,CCCCCN=C(N)NN=Cc1c[nH]c2ccc(OC)cc12,-0.479
15,CC1=C(CO)C(=O)O[C@@H]([C@@H](C)[C@H]2CC[C@H]3[C@@H]4C[C@H]5O[C@]56[C@@H](O)C=CC(=O)[C@]6(C)[C@@H]4CC[C@]23C)C1,-2.26
16,Cc1cccc(-c2nn(C(=S)Nc3ccccc3)cc2-c2ccnc3ccccc23)n1,0.562
17,Clc1ccc2ncc(-c3cccc(NC4CNC4)n3)n2c1,-0.0618
18,CCCc1nn(C)c2c(=O)[nH]c(-c3cc(S(=O)(=O)N4CCN(C)CC4)ccc3OCC)nc12,-0.259
19,COc1ccccc1[C@H](c1cccc2ccccc12)[C@@](C)(C#N)C(=O)N1CCC(c2cccc(C(F)(F)F)c2)CC1,0.831
20,C=Cc1c(C)c2cc3nc(cc4[nH]c(cc5nc(cc1[nH]2)C(C)=C5CCC(=O)O)c(CCC(=O)OC)c4C)[C@@]1(C)C3=CC=C(C(=O)OC)[C@H]1C(=O)OC,-1.83
